Results reported in the supplement of paper PMC10849652.
Some of the results follow.

Protein sequences, listed by entry. Tags and fused reporters are not part of them. Lines headed by an entry give the natural chain unless they say otherwise; changes in a name come on top.
UniProt P05155: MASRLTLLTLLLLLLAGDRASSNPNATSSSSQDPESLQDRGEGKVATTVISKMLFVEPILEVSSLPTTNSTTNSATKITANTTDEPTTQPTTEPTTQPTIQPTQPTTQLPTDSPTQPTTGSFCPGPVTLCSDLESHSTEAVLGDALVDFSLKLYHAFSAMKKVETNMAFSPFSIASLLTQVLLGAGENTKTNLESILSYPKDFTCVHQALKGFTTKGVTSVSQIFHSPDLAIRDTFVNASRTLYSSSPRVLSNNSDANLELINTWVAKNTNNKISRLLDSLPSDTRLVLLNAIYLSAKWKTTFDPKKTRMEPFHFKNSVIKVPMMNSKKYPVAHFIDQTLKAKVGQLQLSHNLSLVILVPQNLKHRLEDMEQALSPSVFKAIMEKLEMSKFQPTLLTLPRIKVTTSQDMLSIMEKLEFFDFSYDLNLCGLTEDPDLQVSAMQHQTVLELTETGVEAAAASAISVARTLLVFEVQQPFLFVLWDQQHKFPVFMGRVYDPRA
UniProt Q8IX90, whole entry, looked up: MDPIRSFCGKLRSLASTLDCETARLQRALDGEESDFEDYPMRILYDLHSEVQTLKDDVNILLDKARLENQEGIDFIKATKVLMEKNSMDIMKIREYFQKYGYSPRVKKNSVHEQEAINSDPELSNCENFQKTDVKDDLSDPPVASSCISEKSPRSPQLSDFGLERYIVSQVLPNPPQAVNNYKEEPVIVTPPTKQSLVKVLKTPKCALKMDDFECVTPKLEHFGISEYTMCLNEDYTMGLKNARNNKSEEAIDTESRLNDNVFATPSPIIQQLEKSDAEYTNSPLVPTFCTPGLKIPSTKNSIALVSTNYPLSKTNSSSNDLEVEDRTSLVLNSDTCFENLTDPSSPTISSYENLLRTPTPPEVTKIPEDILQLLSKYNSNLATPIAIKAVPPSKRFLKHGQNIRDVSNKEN
UniProt Q9UGP8: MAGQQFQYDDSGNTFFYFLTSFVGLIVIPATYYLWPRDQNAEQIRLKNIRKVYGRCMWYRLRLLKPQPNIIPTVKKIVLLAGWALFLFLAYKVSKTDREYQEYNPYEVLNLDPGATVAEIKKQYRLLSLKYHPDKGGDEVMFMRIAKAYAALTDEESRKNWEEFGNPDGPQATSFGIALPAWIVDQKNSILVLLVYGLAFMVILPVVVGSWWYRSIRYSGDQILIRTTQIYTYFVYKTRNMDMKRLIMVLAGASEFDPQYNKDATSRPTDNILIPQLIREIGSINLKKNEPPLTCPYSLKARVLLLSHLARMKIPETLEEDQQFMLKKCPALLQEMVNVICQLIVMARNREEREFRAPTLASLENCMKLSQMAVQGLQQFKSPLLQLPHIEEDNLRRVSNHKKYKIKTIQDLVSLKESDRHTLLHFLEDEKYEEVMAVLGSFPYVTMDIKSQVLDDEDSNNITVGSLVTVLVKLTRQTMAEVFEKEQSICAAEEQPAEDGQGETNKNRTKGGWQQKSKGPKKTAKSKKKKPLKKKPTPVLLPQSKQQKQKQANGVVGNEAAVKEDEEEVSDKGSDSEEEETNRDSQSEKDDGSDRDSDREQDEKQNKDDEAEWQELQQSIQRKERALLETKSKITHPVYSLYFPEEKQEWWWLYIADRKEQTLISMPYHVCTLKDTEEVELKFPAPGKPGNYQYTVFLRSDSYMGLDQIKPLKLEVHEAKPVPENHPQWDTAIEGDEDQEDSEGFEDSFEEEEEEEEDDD
UniProt P60468, whole entry, looked up: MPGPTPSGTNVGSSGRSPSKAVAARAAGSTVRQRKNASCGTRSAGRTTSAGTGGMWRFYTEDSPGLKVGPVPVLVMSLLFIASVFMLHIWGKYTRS
UniProt O43255: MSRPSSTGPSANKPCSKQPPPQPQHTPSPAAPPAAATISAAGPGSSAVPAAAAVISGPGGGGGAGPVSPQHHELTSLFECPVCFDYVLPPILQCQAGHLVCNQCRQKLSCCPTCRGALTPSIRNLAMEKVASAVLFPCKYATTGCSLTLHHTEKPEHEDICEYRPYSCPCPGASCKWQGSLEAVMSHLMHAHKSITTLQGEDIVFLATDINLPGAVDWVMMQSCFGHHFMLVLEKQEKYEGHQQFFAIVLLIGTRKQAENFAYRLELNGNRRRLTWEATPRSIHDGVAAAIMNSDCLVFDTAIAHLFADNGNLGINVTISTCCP
UniProt P36955: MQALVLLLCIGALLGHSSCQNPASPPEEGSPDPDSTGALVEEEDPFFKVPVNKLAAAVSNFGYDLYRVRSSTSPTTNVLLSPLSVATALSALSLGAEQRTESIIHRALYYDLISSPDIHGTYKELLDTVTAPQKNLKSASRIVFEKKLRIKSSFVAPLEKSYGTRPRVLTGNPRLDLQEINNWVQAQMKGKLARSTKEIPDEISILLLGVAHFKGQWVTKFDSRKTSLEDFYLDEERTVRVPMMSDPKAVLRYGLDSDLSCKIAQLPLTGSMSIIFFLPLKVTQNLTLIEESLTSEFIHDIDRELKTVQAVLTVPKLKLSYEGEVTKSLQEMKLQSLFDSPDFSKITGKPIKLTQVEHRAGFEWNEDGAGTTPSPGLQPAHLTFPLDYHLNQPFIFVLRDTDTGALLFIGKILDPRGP
UniProt Q15019: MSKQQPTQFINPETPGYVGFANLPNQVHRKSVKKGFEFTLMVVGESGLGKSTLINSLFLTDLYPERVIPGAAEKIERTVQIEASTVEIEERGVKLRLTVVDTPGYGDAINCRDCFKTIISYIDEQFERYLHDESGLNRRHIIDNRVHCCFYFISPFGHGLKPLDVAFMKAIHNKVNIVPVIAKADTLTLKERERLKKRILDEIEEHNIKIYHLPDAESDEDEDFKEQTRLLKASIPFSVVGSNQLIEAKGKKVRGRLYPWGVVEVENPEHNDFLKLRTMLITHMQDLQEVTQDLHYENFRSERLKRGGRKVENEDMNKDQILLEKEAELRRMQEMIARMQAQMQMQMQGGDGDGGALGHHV
UniProt Q9C0C4, whole entry, looked up: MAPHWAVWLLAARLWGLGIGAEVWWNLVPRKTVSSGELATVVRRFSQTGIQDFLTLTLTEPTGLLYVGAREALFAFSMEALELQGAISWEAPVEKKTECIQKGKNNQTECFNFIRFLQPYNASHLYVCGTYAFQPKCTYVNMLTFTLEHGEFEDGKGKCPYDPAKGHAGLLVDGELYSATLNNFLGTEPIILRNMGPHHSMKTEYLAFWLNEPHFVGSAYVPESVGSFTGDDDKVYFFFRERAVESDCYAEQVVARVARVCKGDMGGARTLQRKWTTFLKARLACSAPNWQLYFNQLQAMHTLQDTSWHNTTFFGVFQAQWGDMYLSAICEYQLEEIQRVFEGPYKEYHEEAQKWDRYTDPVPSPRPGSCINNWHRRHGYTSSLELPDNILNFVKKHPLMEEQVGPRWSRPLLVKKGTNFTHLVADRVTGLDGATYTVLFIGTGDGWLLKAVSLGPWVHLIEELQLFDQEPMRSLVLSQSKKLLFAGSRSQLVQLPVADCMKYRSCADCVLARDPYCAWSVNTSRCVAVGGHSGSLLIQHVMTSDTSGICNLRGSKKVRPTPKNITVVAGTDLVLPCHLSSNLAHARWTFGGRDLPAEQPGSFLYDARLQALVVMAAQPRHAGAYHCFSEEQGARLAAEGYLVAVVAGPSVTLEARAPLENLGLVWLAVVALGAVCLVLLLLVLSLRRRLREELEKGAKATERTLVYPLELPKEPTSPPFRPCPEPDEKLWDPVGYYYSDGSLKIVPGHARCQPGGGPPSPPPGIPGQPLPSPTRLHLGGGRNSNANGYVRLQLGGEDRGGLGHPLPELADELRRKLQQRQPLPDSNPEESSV
UniProt P30740: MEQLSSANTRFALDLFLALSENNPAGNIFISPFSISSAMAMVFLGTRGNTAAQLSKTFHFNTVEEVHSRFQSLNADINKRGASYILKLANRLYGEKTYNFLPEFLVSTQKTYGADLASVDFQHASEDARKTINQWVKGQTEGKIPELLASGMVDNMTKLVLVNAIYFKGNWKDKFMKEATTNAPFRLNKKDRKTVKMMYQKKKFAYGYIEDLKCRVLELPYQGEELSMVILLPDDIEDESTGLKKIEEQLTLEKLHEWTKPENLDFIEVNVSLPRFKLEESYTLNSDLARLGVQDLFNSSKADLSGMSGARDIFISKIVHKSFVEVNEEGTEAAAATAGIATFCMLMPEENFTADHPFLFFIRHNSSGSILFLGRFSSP
UniProt Q96ES7: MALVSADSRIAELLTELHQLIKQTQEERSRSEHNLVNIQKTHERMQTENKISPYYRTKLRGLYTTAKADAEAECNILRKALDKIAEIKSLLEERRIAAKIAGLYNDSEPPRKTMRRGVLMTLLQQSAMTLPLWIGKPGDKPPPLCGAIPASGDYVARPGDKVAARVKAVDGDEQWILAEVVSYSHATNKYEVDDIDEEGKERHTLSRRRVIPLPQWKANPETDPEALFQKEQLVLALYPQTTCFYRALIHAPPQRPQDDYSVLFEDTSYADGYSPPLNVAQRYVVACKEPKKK
UniProt P84101: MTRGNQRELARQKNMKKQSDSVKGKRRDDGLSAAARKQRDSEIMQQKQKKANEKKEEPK

These targets were tested with c1cn2cc(-c3ccc4cn[nH]c4c3)nc(Nc3ccc(N4CCOCC4)cc3)c2n1 [entospletinib] (assay: log2 fold change, soluble protein after heating vs DMSO (PISA); higher = thermal stabilisation; K562 cells, 10 uM, 30 min; active = over 0.2 and 3.5 SD of the protein, either way, in both replicates (recomputed)).
How it was run: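 Soluble protein was defined as the supernatant after 21,000xg for 90 min. It came from K562 cells at 2×10^6 cells/mL given 10 μM compound for 30 min, heated in aliquots for 3 min across 48°C-58°C, pooled, and extracted in PBS with 0.5% NP-40 at 4°C, and was quantified by TMTpro 16plex LC-MS/MS with equalised channel sums. Thermal stability against control samples, from duplicates, is reported as log2 fold change.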

log2 fold change, inactive:
SERPING1 isoform 3 (UniProt P05155) 0.172, SKA3 (UniProt Q8IX90) 0.079, SEC63 (UniProt Q9UGP8) -0.047, SEC61B (UniProt P60468) 0.051, SIAH2 (UniProt O43255) -0.072, SERPINF1 (UniProt P36955) 0.066, SLAIN2 (UniProt Q9P270) -0.021, SEPTIN2 isoform 2 (UniProt Q15019) -0.017, SF1 (UniProt H7C0N4) 0.027, SEMA4C (UniProt Q9C0C4) 0.077, SERPINB1 (UniProt P30740) 0.013, SGF29 (UniProt Q96ES7) 0.007, SERF2 (UniProt P84101) 0.07
